{"source": "patent US20020129385A1", "about": "“MEDTHODS FOR IMPROVING LONG-TERM MEMORY STORAGE AND RETRIEVAL” (priority 1998, published 2002)", "key": {"[1]": {"test_system": "calcineurin", "experiment": "Phosphatase assay in hippocampal extracts of Tet-CN279 and Tet-CN273 mice", "type": "biochemical, mouse", "protocol": "Phosphatase assays were performed as described in Winder et al., 1998. Briefly, mice were injected with 5 ml/kg of pentobarbital and decapitated. Hippocampi were dissected out, homogenized in 2 mM EDTA (pH 8), 250 mM sucrose, 0.1% β-mercaptoethanol. Supernatants were incubated at 30° C. for 1 min in presence of the […] [[…]]-RII peptide and either 0.1 mM calmodulin and 0.66 mM Ca^2+ or 0.33 mM EGTA. The reaction was stopped and the enzyme activity calculated previously as described (Klee et al., 1983; 1987). The activity was expressed in nmol Pi released/min/mg protein. The protein concentration was determined using the bicinchroninic acid protein assay kit (SIGMA®). All samples were performed in triplicate."}, "[2]": {"test_system": "calcineurin", "experiment": "Phosphatase assay in hippocampal extracts of rTet-CN279 mice", "type": "biochemical, mouse", "protocol": "Phosphatase assays were performed as described in Winder et al., 1998. Briefly, hippocampal extracts from rTet-CN279 adult mice were prepared in 2 mM EDTA (pH 8), 250 mM sucrose, 0.1% b-mercaptoethanol. Supernatants were incubated at 30° C. for 1 min in the presence of […] [[…]]-RII peptide and either 0.1 mM calmodulin and 0.66 mM Ca^2( or 0.33 mM EGTA. The enzyme activity was expressed in nmol Pi released/min/mg protein."}, "[3]": {"test_system": "lacZ reporter gene", "experiment": "Induction of lacZ reporter gene expression in brain of rTet-lacZ mice (X-gal staining)", "type": "in vivo, mouse"}, "[4]": {"test_system": "rTet-CN279 mice", "experiment": "Morris water maze, rTet-CN279 mice treated or not with doxycycline", "type": "in vivo, mouse"}}, "note": "For at least one compound, name, drawing or mass did not settle the structure.", "data": [{"compound": "C[C@H]1c2cccc(O)c2C(=O)C2=C(O)[C@]3(O)C(=O)C(C(N)=O)=C(O)[C@@H](N(C)C)[C@@H]3[C@@H](O)[C@@H]21", "note": "[doxycycline]", "values": [{"measurement": "Phosphatase activity", "setting": "[1]; Tet-CN273 mutant on dox", "value": "4.23±0.36", "unit": "nmol Pi/min/mg"}, {"measurement": "Phosphatase activity", "setting": "[1]; Tet-CN279 mutant on dox", "value": "3.95±0.48", "unit": "nmol Pi/min/mg"}, {"measurement": "Increase in calcineurin activity", "setting": "[2]; rTet-CN279 mutant treated with doxycycline for 2 weeks", "value": "77%±10.7"}, {"measurement": "Phosphatase activity", "setting": "[2]; rTet-CN279 mutant treated with doxycycline for 2 weeks at 6 mg/g food", "value": "8.63±1.17", "unit": "nmol Pi/min/mg"}, {"measurement": "Phosphatase activity", "setting": "[2]; rTet-CN279 mutant withdrawn from doxycycline for 2 weeks after 2-week treatment (on-off dox)", "value": "5.15±0.83", "unit": "nmol Pi/min/mg"}, {"measurement": "lacZ gene expression after treatment", "setting": "[3]; 3 days of treatment with 6 mg/g of food", "value": "only a modest induction of expression"}, {"measurement": "lacZ gene expression after treatment", "setting": "[3]; 6 days of treatment with 3 mg/g of food", "value": "only a modest induction of expression"}, {"measurement": "Treatment time necessary for full induction of reporter gene expression", "setting": "[3]; doxycycline in the diet, 6 mg/g of food, adult mouse brain", "value": "six"}, {"measurement": "Learning on visible platform version (escape latency)", "setting": "[4]; control and mutant mice, 2-day training, doxycycline 6 mg/g food", "value": "did not interfere with learning or performance"}, {"measurement": "Performance on hidden platform version across 5-day training (escape latency)", "setting": "[4]; rTet-CN279 mutant mice treated with doxycycline", "value": "no improvement in performance"}]}]}
